# Assay results: the supplement of paper PMC12823440, “Inhibitors supercharge kinase turnover through native proteolytic circuits” (Nature, 2025)
# By UniProt entry, the sequences of proteins in these tests, tags left out.
# UniProt P21802, whole entry, looked up: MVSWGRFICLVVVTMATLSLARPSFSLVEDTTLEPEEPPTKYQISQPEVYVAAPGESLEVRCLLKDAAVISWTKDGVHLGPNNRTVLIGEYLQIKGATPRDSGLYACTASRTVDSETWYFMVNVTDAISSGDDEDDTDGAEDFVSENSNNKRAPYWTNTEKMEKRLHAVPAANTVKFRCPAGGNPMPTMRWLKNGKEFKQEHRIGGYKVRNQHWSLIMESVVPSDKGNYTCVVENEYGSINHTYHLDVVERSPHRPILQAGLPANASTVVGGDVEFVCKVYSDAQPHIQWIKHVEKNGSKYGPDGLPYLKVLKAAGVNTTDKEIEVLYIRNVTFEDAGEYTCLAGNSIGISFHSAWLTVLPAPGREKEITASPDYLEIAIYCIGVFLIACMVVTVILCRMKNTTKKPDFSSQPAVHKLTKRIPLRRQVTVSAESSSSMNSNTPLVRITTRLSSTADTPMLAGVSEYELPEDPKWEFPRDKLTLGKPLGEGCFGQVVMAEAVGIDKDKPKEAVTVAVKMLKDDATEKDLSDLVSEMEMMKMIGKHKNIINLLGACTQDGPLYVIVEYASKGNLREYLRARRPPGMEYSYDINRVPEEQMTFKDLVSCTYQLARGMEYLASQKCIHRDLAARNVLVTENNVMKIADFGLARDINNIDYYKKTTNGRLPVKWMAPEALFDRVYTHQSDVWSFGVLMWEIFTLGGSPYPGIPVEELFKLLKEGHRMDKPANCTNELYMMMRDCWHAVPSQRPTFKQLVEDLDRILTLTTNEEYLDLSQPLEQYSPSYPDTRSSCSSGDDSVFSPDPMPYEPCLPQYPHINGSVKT
# Counter-ions that a name gives are not always drawn. This is one part of the list. The calls rarely recur for the same compound in another form.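 Kinases, fused to nanoluciferase, were expressed in K562 cells; luminescence was measured every 4 h from 2 to 18 h as percent of control (DMSO = 100%, positive control = 0%). A time point is decreased if signal falls significantly (2 sigma). Hits were called by the authors by a rule that is not shown; the count of time points alone does not decide it.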
# Target: FGFR2 (UniProt P21802)
# Assay: number of time points (of 5) at which kinase-Nluc abundance scored as decreased, DMSO-normalised (count); higher = more persistent destabilization
# Conditions: K562; 2-18 h
row,SMILES,number of time points
1,"CN1CC[C@H](c2c(O)cc(O)c3c(=O)cc(-c4ccc(C(F)(F)F)cc4Cl)oc23)[C@H]1CO [(2S,3R)-Voruciclib (hydrochloride)] (2.5 µM)",0
2,CCn1nc(C2CCN(C(=O)CCO)CC2)nc1-c1cnc(N)c(-c2nnc(C(C)(C)C)o2)n1 (10 µM),0
3,O=C(O)c1ccccc1Nc1cccc(C(F)(F)F)c1 [Flufenamic acid] (10 µM),0
4,CNC(=O)c1ccc(-c2cnc3cnc(-c4ccccc4)cn23)cc1 (10 µM),0
5,Nc1cccc(S(=O)(=O)N2CCCN(S(=O)(=O)c3ccc4c(c3)OCCO4)CC2)c1 (10 µM),0
6,CC1(COc2ccc3c(c2)ncn3-c2ccc3cccc(N4CCC(N)CC4)c3n2)COC1 [Crenolanib] (2.5 µM),0
7,O=C(CCCCCn1cc(Nc2ncc(Cl)c(Nc3ccc(Cl)cc3)n2)cn1)NO (2.5 µM),0
8,CC(C)n1cnc2c(Nc3cccc(Cl)c3)nc(NCCO)nc21 (10 µM),0
9,COc1ccc(CCNc2ncc3c(=O)n(-c4cccc(F)c4)c(=O)[nH]c3n2)cc1OC (2 µM),0
10,OCCN(CCO)c1ccc(C(c2ccc(Cl)cc2)c2ccc(N(CCO)CCO)cc2)cc1 (10 µM),3
11,CSc1ccc(CN2CCCC(Nc3ccc4[nH]ncc4c3)C2)cc1 (centres undefined) [Rho-Kinase-IN-1] (10 µM),0
12,COc1cc(C(=O)N2CCC(N3CCN(C)CC3)CC2)ccc1Nc1ncc2c(n1)N(C)c1ccccc1C(=O)N2C (10 µM),0
13,CC(C)c1cc(/C=C(\C#N)C(N)=O)cc(C(C)C)c1O (10 µM),0
14,CCCNC(=O)c1cn2ncnc(Nc3cc(C(=O)NC4CC4)ccc3C)c2c1C (10 µM),0
15,COc1ccc2c(c1OC)OC1c3ccc(O)cc3OCC21 (centres undefined) [Methylnissolin] (10 µM),0
16,CN(CC(=O)N(Cc1ccc(C2CCCCC2)cc1)c1ccc(C(=O)O)c(O)c1)S(=O)(=O)c1c(F)c(F)c(F)c(F)c1F (2.5 µM),0
17,CCCCNC(=N)NC(=N)N [Buformin (hydrochloride)] (2.5 µM),0
18,O=C1NCCCc2c1oc1ccc(O)cc21 (10 µM),0
19,c1ccc(-c2oc3ncnc(NC[C@@H]4CCCO4)c3c2-c2ccccc2)cc1 (2.5 µM),0
20,CC(=O)Nc1nc2ccc(-c3cnc(C)c(NC(=O)OC4CCCCC4)c3)cc2s1 (10 µM),0

row,SMILES,number of time points
1,CCOc1ccccc1C=C1C(=O)Nc2ccccc21 (10 µM),1
2,Cc1ccc(-c2nn(C(C)(C)CNC(=O)c3ccncc3)c3ncnc(N)c23)cc1 (2.5 µM),0
3,CC[C@H](Nc1ncnc2[nH]cnc12)c1oc2ccccc2c(=O)c1-c1cccc(F)c1 [Tenalisib] (10 µM),0
4,CC(C)(C)C(=O)N1N=CC[C@H]1c1ccccc1 (10 µM),0
5,COC1(C(=O)N[C@@H](C)c2ccc(-n3cc(F)cn3)nc2)CCC(c2nc(C)cc(Nc3cc(C)[nH]n3)n2)CC1 (stereo partly drawn) [trans-Pralsetinib] (2.5 µM),0
6,CN(C)Cc1cccc(N=C(c2ccccc2)c2c(O)[nH]c3cc(C(N)=O)ccc23)c1 (10 µM),0
7,COc1nc(-c2ccnc(NC(=O)C3CC3)c2)sc1C(N)=O [GSK-3β inhibitor 2] (10 µM),0
8,C=C[C@H]1[C@H](O[C@@H]2O[C@H](CO)[C@@H](O)[C@H](O)[C@H]2OC(=O)c2c(O)cc(O)cc2-c2cccc(O)c2)OC=C2C(=O)OCC[C@H]21 [Amarogentin] (10 µM),0
9,COc1cc(C(C)=O)cc(OC)c1O [Acetosyringone] (10 µM),0
10,O=C(O)CCc1ccc(NCc2cccc(Oc3ccccc3)c2)cc1 (10 µM),0
11,Cc1cc(C(C)Nc2ccccc2)c2nc(N3CCOCC3)cc(=O)n2c1 (centres undefined) (10 µM),0
12,O=C(O)c1ccc(-c2c[nH]c3ncc(-c4ccccc4)cc23)cc1C1CCCC1 (2.5 µM),0
13,CC1=C(CC(=O)O)c2cc(F)ccc2/C1=C\c1ccc(C(C)C)cc1 (10 µM),0
14,COc1cc(N2CCC(N(C)C)CC2)ccc1Nc1ncc(Cl)c(Nc2ccccc2P(C)(C)=O)n1 (2.5 µM),1
15,Cc1ccc(-c2ccc3c(ccc4sc5c(c43)NC[C@@H](C)NC5=O)n2)cn1 (10 µM),0
16,Nc1cc(C(F)F)c(-c2nc(N3C4CCC3COC4)nc(N3C4CCC3COC4)n2)cn1 (2.5 µM),0
17,O=c1cc(-c2ccc(O)c(O)c2O)oc2ccccc12 (10 µM),0
18,CC(C)c1ccc(CC(=O)N2CCN(c3ccc(C#N)nn3)CC2)cc1 (10 µM),0
19,CN(C)Cc1cccc(N=C(c2ccccc2)c2c(O)[nH]c3cc(C(=O)N(C)C)ccc23)c1 (10 µM),0

# 2 compounds drawn at random from the list so far, as already listed:
row,SMILES,number of time points
2,Cc1ccc(-c2nn(C(C)(C)CNC(=O)c3ccncc3)c3ncnc(N)c23)cc1 (2.5 µM),0
16,Nc1cc(C(F)F)c(-c2nc(N3C4CCC3COC4)nc(N3C4CCC3COC4)n2)cn1 (2.5 µM),0
